In PubChem BioAssay AID2685 (National Center for Advancing Translational Sciences (NCATS), 2010):
The list shows a part of the results. Shown are side measurements of this screen, not its main read-out; they come without a call. The list favours compounds with an active or inconclusive main result. The note in brackets gives the kind of curve behind each potency; many fits are weak.

Test: qHTS Assay for Lipid Storage Modulators in Drosophila S3 Cells;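 as to cell number change: cells counted by Cell Tracker Red CMTPX staining in the red channel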
Conditions: BODIPY lipid droplet fluorescence, 18-24 h; for cell number change: measured here: cell count max response, cells fed with added oleic acid
Method in brief: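 Drosophila S3 cells got compounds at several concentrations plus oleic acid (400 uM solution). Laser-scanning cytometry with 488 nm excitation read lipid droplets at 500-530 nm and cells at 575-640 nm. Percent activity was relative to 20 uM Triacsin C.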

[1] = measured here: lipid fluorescence (Fed channel) AC50, cells fed with added oleic acid
[2] = measured here: cell number channel AC50, cells fed with added oleic acid

**Q.** With `O=c1cc(-c2ccccc2Cl)oc2cc(O)cc(O)c12` as the molecule, how does the cell number change read?
**A.** 15.3%

**Q.** And the AC50 [1]?
**A.** 0.731 µM [rising, full curve, poor fit]

**Q.** With `O=C(NCc1ccco1)C1CCCN1C(=O)Nc1ccccc1[N+](=O)[O-]` (centres undefined) as the molecule, how does the cell number change read?
**A.** 16.1%

**Q.** What about the AC50 [1] of the same molecule?
**A.** 6.51 µM [rising, single point]

**Q.** What does the source list for `O=C(CN1CCC(O)(c2ccccc2)CC1)Nc1ccc2c(c1)OCCO2`?
**A.** cell number change: 35%; AC50 [1]: 18.4 µM [rising, single point]

**Q.** With `COc1ccc(C(=O)CCC(=O)Nc2ccc(N3CCCCC3)cc2)cc1OC` as the molecule, how does the cell number change read?
**A.** 2.7%

**Q.** And the AC50 [1]?
**A.** 29.1 µM [falling, single point]

**Q.** With `CS(=O)(=O)c1sc(C#N)c2c1C(=O)CC(c1ccccc1)C2` (centres undefined) as the molecule, how does the cell number change read?
**A.** -62.9%

**Q.** What about the AC50 [2] of the same molecule?
**A.** 11.6 µM [falling, partial curve]

**Q.** And the AC50 [1]?
**A.** 13 µM [falling, partial curve]

**Q.** For `CN(C(=O)CN1C(=O)NC(c2ccccc2)(c2ccccc2)C1=O)C1CCS(=O)(=O)C1` (centres undefined), which AC50 [1] is on record?
**A.** 2.59 µM [rising, full curve]

**Q.** For `FC(F)(F)c1cccc(CN2CCSCC2)c1`, which cell number change is on record?
**A.** 17.1%

**Q.** What about the AC50 [1] of the same molecule?
**A.** 32.6 µM [rising, single point]

**Q.** Which cell number change does the source give for `Fc1ccc(/C=N/N2CCCCC2)c(F)c1` here?
**A.** 6.52%

**Q.** What about the AC50 [1] of the same molecule?
**A.** 0.58 µM [rising, full curve, poor fit]

**Q.** What does the source list for `CC1Cc2ccccc2N1C(=O)CN(C)CC(=O)Nc1ccc(F)cc1` (centres undefined)?
**A.** cell number change: 1.27%; AC50 [1]: 18.4 µM [rising, single point]

**Q.** For `Cc1nn(Cc2ccc(Cl)cc2)c(C)c1NC(=O)c1cc(C(C)C)on1`, which cell number change is on record?
**A.** 14.6%

**Q.** What about the AC50 [1] of the same molecule?
**A.** 0.00461 µM [rising, full curve, poor fit]

**Q.** Which cell number change does the source give for `CCCOc1cccc(OCC(=O)Nc2nc3ccccc3[nH]2)c1` here?
**A.** -5.1%

**Q.** And the AC50 [1]?
**A.** 5.8 µM [rising, partial curve]

**Q.** For `CCOc1ccc(C2Nc3ccc4ccccc4c3-c3c2c(=O)oc2ccccc32)cc1` (centres undefined), which AC50 [2] is on record?
**A.** 0.731 µM [rising, partial curve]

**Q.** And the AC50 [1]?
**A.** 2.06 µM [rising, partial curve]

**Q.** For `CN(C)C1=NC[C@H](Cc2ccccc2)N1CCCC1CCCC1`, which cell number change is on record?
**A.** 33.2%

**Q.** And the AC50 [2]?
**A.** 29.1 µM [rising, single point]

**Q.** And the AC50 [1]?
**A.** 23.1 µM [rising, single point]

**Q.** With `CC1(C)CC2(CCO1)CNC(=O)O2` (centres undefined) as the molecule, how does the cell number change read?
**A.** -28.5%

**Q.** What about the AC50 [1] of the same molecule?
**A.** 2.91 µM [falling, full curve]

**Q.** Which cell number change does the source give for `O=[N+]([O-])c1ccc(N2CCN(C(=S)NCc3ccc(Cl)cc3)CC2)cc1` here?
**A.** -27.5%

**Q.** And the AC50 [1]?
**A.** 29.1 µM [falling, single point]

**Q.** Which cell number change does the source give for `Cc1ccc(C(=O)Nc2nc3ccccc3c(=O)s2)cc1` here?
**A.** -38.3%

**Q.** And the AC50 [2]?
**A.** 5.17 µM [falling, full curve, poor fit]

**Q.** What about the AC50 [1] of the same molecule?
**A.** 32.6 µM [falling, single point]
